# From PubChem BioAssay AID1508600 (Functional Genomics Laboratory (NCATS/FGL), 2020)
# Hit rate of the full screen: of about 53,000 sequences, about 3,700 (7%) were called active.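 How the source made its calls: active means gene knockdowns whose robust z-score for IL-1 alpha signal is at least 2 or at most -2, so actives lie on both sides; inactive means the rest.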 The list shows a part of the results.
# Test: Components of the Cytosolic LPS Sensing Pathway: Gene Identification via Genome-wide siRNA Screen;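 further: robust z of the log signal after scaling to non-targeting control siRNA wells of the plate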
# Settings: RAW264.7 macrophages, IL-1a HTRF, actives lie on both sides, screened at 100 nM (by protocol), cells primed 5 h with Pam3CSK4 first
# Procedure, shortened: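 Mouse macrophage line RAW264.7 is transfected with siRNA (100 nM final), grown 48h, primed with TLR ligand Pam3CSK4 5 h and given intracellular LipidA 24 h. IL-1a in supernatant is read by HTRF and viability by luminescence.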
row,Sequence,z-score
1,GGCUCUCUGAGGAAUCUAGTT against Slc66a2,inactive: -0.413
2,CGGACCAUUAUGAGUCAUUTT against Mtln,inactive: 0.734
3,GGUCAUGGAUUGCUUUUUATT against Dus1l,inactive: -0.251
4,GGGCAUCUUCUACCUGACCTT against Zdhhc9,inactive: -0.59
5,GGGCCUGUAAUGGUGUACATT against B230317F23Rik,active: 2.56
6,GGUUUCUUUUAAGCAUCAUTT against Olfr862,inactive: -0.611
7,GGGUGAAUCAUUCUGUGACTT against Olfr1313,inactive: 0.531
8,GGCAAAGAACAUCAAGCAATT against Sgsm3,inactive: -0.495
9,GGACAUGCUUUUAUAGAUGTT against H2aw,inactive: 0.994
10,GGCCAAAAUCGGGCAAGAATT against Nat9,inactive: -0.813
11,CGAAGAGAGCUGCAUUAAATT against BC049715,inactive: -1.37
12,GGUGCUCUUUUCAGAAAAATT against Hacd1,inactive: 0.65
13,GUCAAAGAGUUUCAGCAUCTT against Foxl1,inactive: 0.664
14,GCAUUCACCGUACGUAUUCTT against Id4,inactive: 0.187
15,GGUUCAUCAUUUGGAAACATT against Msh4,inactive: -1.43
16,GGGUCCCGGUUUAAAGCUUTT against Ankle2,inactive: -0.892
17,CGAGGAUUUCUGUUACUUATT against Lyst,inactive: 1.19
18,GCCAUUCGUUCUACGAAACTT against Fam3c,inactive: 0.114
19,GGGAGUUUCAGACCAGUGUTT against Atp5g3,inactive: -0.097
20,GGAAAAGGCCGAUUUCGUGTT against Dixdc1,inactive: 0.556
21,GGUGAGAACGAGAUGGUGATT against Txnip,inactive: -0.057
22,CGUGUUUCACAAGAGCAUATT against Svs2,inactive: -0.472
23,GGUGAUUUUAUGACAGGAATT against Cbx6,inactive: -0.814
24,GCAAGGAUCCACGCUUUUCTT against Ckmt2,inactive: 1.34
25,GGAAAAGCUCAAUGUCCUCTT against Tex13b,inactive: -0.141
26,GCAAGAGUACAUCAAUGAUTT against Wdr75,inactive: 1.1
27,CGGAUUAAACAUAGUAACUTT against Prss58,inactive: -0.0341

# Reprinted at random: 3 records from the list
row,Sequence,z-score
20,GGAAAAGGCCGAUUUCGUGTT against Dixdc1,inactive: 0.556
11,CGAAGAGAGCUGCAUUAAATT against BC049715,inactive: -1.37
24,GCAAGGAUCCACGCUUUUCTT against Ckmt2,inactive: 1.34

# (continued)

row,Sequence,z-score
1,GGCACAAGACAGUUUGGCATT against Lonrf3,inactive: 0.0474
2,GGAGGAUUCCAAAGUCCGATT against Sp5,inactive: 0.4
3,GCCGUGGCCUAAUAAACGUTT against Nosip,inactive: 0.0316
4,CCCGAAUCUCAGCGUAGAATT against Gm5617,inactive: -0.853
5,GGGCACUGGAACAGAUUUUTT against Ccnh,active: 4.27
6,GCAUUUUAUGCACUCUGUCTT against Camk4,inactive: -1.19
7,GCCAGUCUUAAAUGAUCAATT against Evi2b,inactive: 0.25
8,GGAUCUUGGAUGAGCUGACTT against Krt31,inactive: -0.76
9,GGCCUAAUUAGUUACUUCUTT against Zfp446,inactive: -0.0114
10,GGAAUGGAGUCUCCAAAGUTT against Mgl2,inactive: 0.788
11,GGGUACUGAGGCACUAAAGTT against Mzt1,inactive: 1.09
12,GGUGAUGACAAAGUACAAUTT against Stx3,inactive: -0.248
13,GGAAUUUUAGCGGAUGAUATT against Hltf,inactive: -0.369
14,GGUCGAAUGAAAAUCGCCATT against Arhgap18,inactive: -1.56
15,GCACGUGGGCUAUUCCUACTT against Gria1,inactive: -0.158
16,GGACCUCAGAAUUUAUACUTT against Atf5,inactive: 0.653
17,CCAAUCAUUGAAGAUAGAGTT against Olfr811,inactive: -0.176
18,CCUCUAUCUAACCUUUUCUTT against 1810037I17Rik,inactive: -0.449
19,GGAAGAUCUAUACUGUGGUTT against Wfdc18,inactive: -0.65
20,GCUCAGUACCGCACAACCATT against Dus3l,inactive: -0.827
21,GGAAAAAAUCUGCAUCCGATT against Neu1,inactive: -0.415
22,GGUAUGAUGCCUAUUUAUUTT against Cln8,inactive: -0.278
23,GGAGUAUUGUUUUAAACCCTT against Spata16,inactive: 0.406
24,CCCAAAACCCUGCUAUUCATT against Synj2bp,inactive: 0.41
25,CGACUACCAGAGUCAUUCGTT against Lyzl6,inactive: -1.13
26,GGCCAAAGGACUGAUCAUCTT against Hectd4,inactive: 0.104
